Data as given in PubChem BioAssay AID504784 (Drosophila RNAi Screening Center, 2011)
The screen tested about 17,000 reagents; shown is a random part of those that have a named target and a result. 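Each column is one replicate's B-score; the combined score over replicates was not deposited, so single values may mislead.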 A plus sign joins genes that one reagent is predicted to hit. Further read-outs or replicates are left out here.

Aim: 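Genome-wide knock-down for genes giving too much or too little stored lipid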 (primary screen)
System: Drosophila Kc167 embryonic cells
Knock-down reagent: long dsRNA against Drosophila genes, about 250 ng dsRNA per well
Duration: 4 days
Treatment: cells fed 400 µM oleic acid bound to BSA
Measured: 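Cells imaged and segmented; ratio of lipid droplet area to nuclear area, log-transformed, then normalised as a B-score over the screen; higher means more stored lipid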
Reading the numbers: droplet/nuclear area B-score: higher = more stored lipid (overstorage)

gene knocked down	amplicon	droplet/nuclear area B-score, replicate 1
Polr2F	DRSC12366	-1.29
Lap1	DRSC07454	1.09
Spn42Dd	DRSC05024	-0.232
Spn42Dd	DRSC22060	0.0761
tara	DRSC17076	-0.118
tara	DRSC23014	0.322
CG30270	DRSC22890	-2.16
Trs23	DRSC03190	3.99
CG8006	DRSC10949	-1.36
ph-p	DRSC18820	-0.63
CG15387	DRSC00401	-0.116
CG10996	DRSC19363	0.347
CG11360	DRSC17134	0.375
Nca	DRSC11233	0.102
Irk1	DRSC16106	1.28
CG9592	DRSC11078	0
CSN6	DRSC16593	0.401
CG14369	DRSC14831	0.859
CG11825	DRSC06090	0.392
Nthl1	DRSC03183	-0.422
Jabba	DRSC06521	-0.14
Ir76a	DRSC10987	0.378
CG3760	DRSC04415	2.78
CG32628 (retired record)	DRSC19405	-0.0774
Pdha	DRSC18413	-1.85
CG3894	DRSC01762	3.11
CG3894	DRSC04012	-2.32
CG3894	DRSC04429	3.2
CG12605	DRSC08286	0.14
ppk12	DRSC04086	0.00988
CG5539	DRSC04510	0.737
Nox	DRSC06596	1.41
Nox	DRSC06857	-0.537
CG13312	DRSC09983	-1.6
Tengl1	DRSC00481	-0.902
Dr	DRSC17002	7.02
Dr	DRSC22708	0.0663
GlyRS	DRSC10711	1.26
Vm26Ab	DRSC03473	-0.214
CR9337	DRSC03212	-0.846
CG13564	DRSC04201	-0.754
Obp56h	DRSC06433	-0.0736
idc	DRSC15680	-2.52
CG12436 (retired record)	DRSC09869	-0.647
CG12436 (retired record)	DRSC09885	1.34
CG3548	DRSC04387	-0.903
CG13124	DRSC02220	-0.147
CG2129	DRSC18209	1.49
CtsL2	DRSC06978	2.25
Prp31	DRSC10735	0.029
CG31106	DRSC14655	-1.07
Cdc23	DRSC02708	-0.0138
jet	DRSC03116	-0.0745
CG12971	DRSC11681	-1.07
CG11279	DRSC09837	0.104
Shawn + Tyler	DRSC19564	-0.319
Shawn + Tyler	DRSC19565	-1.68

Not a retest: 6 of the entries above.
gene knocked down	amplicon	droplet/nuclear area B-score, replicate 1
CG30270	DRSC22890	-2.16
Trs23	DRSC03190	3.99
CG8006	DRSC10949	-1.36
ph-p	DRSC18820	-0.63
CG15387	DRSC00401	-0.116
CG10996	DRSC19363	0.347
